{"sequences": {"note": "Amino acid sequences for entries named in this document (tags omitted). Residues count along the entry.", "UniProt P38646, residues 47-679": "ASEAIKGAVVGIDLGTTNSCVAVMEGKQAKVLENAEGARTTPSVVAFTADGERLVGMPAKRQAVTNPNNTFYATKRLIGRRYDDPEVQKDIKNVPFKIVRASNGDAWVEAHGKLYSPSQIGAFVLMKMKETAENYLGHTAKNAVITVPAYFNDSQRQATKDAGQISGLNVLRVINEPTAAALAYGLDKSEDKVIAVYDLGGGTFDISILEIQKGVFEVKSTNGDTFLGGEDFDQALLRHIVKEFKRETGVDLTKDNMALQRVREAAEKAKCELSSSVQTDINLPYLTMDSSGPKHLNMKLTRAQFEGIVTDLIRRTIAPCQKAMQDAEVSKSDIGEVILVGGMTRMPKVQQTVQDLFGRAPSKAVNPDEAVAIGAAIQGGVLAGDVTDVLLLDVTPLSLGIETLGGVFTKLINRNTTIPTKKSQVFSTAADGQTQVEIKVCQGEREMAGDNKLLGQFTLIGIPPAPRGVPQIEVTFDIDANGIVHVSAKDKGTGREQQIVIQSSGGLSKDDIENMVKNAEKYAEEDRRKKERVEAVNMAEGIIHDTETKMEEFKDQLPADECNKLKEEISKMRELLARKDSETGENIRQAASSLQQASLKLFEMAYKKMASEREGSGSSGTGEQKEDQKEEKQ", "UniProt P9WPE7": "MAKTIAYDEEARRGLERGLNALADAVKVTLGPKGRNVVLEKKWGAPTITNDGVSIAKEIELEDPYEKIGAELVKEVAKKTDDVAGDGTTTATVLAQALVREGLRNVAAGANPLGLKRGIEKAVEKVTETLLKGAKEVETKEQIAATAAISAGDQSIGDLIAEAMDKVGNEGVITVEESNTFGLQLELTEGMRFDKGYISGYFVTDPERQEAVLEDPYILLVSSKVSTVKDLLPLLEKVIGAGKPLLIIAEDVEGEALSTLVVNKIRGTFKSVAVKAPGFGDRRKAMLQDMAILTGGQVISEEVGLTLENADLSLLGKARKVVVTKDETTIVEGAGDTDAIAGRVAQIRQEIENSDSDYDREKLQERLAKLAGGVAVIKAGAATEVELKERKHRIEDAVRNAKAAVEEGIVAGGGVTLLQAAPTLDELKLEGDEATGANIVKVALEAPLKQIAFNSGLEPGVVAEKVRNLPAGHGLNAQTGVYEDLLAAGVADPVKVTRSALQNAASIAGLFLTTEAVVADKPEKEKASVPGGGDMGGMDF"}, "source": "paper PMC5399554", "target": "mortalin-mDHFR F3 fusion protein (human) (UniProt P38646)", "assay": "split reporter", "note": "These are yes or no findings as the source states them, for the method shown. In cells and extracts the contact can be indirect. Some entries that bind do so weakly or less than the wild type."}
{"substance": "Cpn60.2-mDHFR F1,2 fusion protein (from UniProt P9WPE7 1-540)", "values": [{"measurement": "binding", "value": "binds"}]}
